Assay [1] addresses T1, Full CS neuropilin-2 (C878S/C885S/C887S/C897S/C922S/C923S) as used in the PlexA3 co-immunoprecipitation (mouse) (UniProt O35375).
T1 sequence: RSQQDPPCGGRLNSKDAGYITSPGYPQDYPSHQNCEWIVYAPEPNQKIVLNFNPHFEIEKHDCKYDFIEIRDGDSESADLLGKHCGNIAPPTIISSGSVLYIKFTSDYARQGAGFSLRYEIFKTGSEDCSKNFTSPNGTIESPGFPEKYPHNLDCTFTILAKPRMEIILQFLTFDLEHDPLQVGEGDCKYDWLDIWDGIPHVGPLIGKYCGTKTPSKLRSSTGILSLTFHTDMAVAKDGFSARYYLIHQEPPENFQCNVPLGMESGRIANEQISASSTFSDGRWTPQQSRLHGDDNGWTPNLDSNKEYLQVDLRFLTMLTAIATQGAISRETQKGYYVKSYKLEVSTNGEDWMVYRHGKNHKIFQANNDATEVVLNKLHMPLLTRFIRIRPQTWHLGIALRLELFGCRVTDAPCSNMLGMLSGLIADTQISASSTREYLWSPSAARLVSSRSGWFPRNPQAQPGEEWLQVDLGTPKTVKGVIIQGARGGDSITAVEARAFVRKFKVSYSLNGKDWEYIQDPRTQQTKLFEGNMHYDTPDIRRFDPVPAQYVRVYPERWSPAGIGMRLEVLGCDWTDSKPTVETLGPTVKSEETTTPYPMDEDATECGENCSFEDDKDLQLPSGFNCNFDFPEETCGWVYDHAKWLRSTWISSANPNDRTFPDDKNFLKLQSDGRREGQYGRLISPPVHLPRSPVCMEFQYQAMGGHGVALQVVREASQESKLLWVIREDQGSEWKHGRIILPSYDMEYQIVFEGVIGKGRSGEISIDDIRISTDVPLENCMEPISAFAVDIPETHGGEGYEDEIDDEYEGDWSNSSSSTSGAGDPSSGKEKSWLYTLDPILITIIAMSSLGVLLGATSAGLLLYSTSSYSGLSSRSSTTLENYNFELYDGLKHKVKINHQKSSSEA
The experiment in a line: co-IP; HEK293T cells co-transfected with myc-tagged PlexA3 and WT Nrp2, Full CS Nrp2 or backbone vector; lysis in TNE buffer (NP-40, Tris, EDTA, NaCl), antibody overnight at 4°C, protein A/G agarose, washes with 500 mM and 150 mM NaCl; immunoblot against myc. (In general: Immunoblotting shows a protein as a band on a membrane.)

The chains behind the UniProt entries cited, without tags or fusion partners. Residues count along the entry.
UniProt P70208, residues 20-1872: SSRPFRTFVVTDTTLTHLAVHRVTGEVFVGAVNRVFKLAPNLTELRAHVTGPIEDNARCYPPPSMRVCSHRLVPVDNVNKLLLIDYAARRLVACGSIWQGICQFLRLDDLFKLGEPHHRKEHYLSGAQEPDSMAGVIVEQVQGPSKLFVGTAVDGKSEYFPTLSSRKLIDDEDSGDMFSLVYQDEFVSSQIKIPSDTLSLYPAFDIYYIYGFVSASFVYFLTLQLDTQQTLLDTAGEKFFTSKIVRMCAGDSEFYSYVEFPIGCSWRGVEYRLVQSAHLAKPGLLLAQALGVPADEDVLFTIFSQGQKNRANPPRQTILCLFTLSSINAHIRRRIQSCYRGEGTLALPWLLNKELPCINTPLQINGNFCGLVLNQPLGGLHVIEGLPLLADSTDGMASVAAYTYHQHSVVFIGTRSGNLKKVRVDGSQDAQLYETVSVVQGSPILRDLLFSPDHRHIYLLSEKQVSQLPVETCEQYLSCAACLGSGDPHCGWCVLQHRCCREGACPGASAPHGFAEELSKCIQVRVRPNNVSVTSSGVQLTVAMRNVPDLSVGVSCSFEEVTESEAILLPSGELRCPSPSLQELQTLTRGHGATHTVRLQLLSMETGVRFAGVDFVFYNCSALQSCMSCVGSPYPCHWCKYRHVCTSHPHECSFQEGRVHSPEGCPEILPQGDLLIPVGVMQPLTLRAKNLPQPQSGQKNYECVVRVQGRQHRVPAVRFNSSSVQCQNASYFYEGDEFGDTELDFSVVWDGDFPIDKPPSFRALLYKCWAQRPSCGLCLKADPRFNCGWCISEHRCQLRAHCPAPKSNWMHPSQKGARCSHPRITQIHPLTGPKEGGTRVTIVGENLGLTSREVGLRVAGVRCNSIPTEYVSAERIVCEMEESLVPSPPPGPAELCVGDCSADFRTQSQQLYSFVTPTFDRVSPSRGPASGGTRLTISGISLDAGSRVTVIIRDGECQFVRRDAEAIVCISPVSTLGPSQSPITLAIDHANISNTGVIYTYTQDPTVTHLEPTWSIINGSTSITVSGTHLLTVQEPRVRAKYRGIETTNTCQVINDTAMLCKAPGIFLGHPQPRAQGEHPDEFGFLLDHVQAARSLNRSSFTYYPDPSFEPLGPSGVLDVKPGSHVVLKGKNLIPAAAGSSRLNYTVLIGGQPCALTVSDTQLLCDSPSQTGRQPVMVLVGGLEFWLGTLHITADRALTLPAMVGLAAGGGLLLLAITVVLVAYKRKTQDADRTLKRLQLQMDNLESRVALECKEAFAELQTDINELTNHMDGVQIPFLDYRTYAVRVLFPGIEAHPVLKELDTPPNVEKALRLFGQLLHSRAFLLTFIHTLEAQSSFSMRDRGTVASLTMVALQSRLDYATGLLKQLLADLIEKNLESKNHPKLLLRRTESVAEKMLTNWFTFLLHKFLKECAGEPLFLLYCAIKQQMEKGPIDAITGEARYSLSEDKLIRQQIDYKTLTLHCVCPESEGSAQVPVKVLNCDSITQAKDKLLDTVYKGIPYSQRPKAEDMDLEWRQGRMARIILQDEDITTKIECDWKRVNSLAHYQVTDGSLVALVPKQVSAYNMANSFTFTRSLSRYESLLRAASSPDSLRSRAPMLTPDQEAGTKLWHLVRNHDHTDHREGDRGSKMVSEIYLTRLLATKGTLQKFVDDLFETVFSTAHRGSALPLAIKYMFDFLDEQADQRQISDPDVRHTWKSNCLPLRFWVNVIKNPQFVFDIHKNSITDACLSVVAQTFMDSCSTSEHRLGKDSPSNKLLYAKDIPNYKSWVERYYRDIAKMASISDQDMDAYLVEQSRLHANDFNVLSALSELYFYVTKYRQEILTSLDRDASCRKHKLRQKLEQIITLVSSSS

Assay [2] addresses T2, wild-type neuropilin-2 (Nrp2 WT) as used in the PlexA3 co-immunoprecipitation (mouse) (UniProt O35375).
T2 sequence: T1 sequence with S858C, S865C, S867C, S877C, S902C, S903C
Described as above.

Assay [3] concerns the target T3, flag-tagged wild-type neuropilin-2 (mouse) (UniProt O35375).
T3 sequence: T1 sequence with S858C, S865C, S867C, S877C, S902C, S903C
The assay is described as follows: co-IP; HEK293T cells co-transfected with flag-tagged WT Nrp2 and pHluorin-tagged WT, Full CS or TCS Nrp2 or backbone vector; flag-Nrp2 WT immunoprecipitated with a flag antibody, immunoblot with flag or GFP antibody; TNE lysis buffer, washes with 500 mM and 150 mM NaCl.

Drawing on publication PMC10069869, this text covers binding for two substances.

Positions count from the first letter of the chain named. No constants are given. Whether binding was seen depends on the method and setting. In cells and extracts the contact can be indirect. Some entries that bind do so weakly or less than the wild type. For part of these data: Where a sequence is shown, tags or fusion partners need not be part of it.

As for “myc-tagged plexinA3 (PlexA3) (from UniProt P70208 20-1872) (receptor)”, the binding result in assay [1] and in assay [2] was “binds” throughout.

As to “pHluorin-tagged wild-type neuropilin-2 (from UniProt O35375-4 21-926) (receptor)”, the binding result in assay [3] was “binds”.
